The other results are listed elsewhere or left out.

Sequences of proteins named here, by UniProt entry; tags and fusion partners are left off. A change or cut given only in a name is not applied to a line headed by its entry.
UniProt P27540, whole entry: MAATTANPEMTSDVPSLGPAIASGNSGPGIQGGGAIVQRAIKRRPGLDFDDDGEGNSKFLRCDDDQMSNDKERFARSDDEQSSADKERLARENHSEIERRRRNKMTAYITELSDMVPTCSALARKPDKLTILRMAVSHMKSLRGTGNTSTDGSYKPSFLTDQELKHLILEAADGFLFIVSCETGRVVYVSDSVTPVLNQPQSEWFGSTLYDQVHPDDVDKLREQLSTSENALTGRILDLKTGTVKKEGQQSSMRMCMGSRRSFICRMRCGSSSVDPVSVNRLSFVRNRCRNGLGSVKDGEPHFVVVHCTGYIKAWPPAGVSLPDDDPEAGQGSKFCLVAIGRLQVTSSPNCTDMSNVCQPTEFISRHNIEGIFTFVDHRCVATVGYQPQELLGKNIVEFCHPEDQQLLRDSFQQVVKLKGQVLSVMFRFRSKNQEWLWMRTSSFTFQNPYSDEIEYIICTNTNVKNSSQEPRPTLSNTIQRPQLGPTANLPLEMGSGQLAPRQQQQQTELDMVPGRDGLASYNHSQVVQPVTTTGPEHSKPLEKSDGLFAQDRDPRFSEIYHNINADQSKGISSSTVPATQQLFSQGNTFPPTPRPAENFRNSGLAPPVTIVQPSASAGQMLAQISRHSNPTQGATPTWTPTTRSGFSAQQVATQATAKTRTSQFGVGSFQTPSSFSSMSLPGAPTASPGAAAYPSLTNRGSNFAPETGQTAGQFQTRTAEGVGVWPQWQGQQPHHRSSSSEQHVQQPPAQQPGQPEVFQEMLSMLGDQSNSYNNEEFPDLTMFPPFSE
UniProt P20020: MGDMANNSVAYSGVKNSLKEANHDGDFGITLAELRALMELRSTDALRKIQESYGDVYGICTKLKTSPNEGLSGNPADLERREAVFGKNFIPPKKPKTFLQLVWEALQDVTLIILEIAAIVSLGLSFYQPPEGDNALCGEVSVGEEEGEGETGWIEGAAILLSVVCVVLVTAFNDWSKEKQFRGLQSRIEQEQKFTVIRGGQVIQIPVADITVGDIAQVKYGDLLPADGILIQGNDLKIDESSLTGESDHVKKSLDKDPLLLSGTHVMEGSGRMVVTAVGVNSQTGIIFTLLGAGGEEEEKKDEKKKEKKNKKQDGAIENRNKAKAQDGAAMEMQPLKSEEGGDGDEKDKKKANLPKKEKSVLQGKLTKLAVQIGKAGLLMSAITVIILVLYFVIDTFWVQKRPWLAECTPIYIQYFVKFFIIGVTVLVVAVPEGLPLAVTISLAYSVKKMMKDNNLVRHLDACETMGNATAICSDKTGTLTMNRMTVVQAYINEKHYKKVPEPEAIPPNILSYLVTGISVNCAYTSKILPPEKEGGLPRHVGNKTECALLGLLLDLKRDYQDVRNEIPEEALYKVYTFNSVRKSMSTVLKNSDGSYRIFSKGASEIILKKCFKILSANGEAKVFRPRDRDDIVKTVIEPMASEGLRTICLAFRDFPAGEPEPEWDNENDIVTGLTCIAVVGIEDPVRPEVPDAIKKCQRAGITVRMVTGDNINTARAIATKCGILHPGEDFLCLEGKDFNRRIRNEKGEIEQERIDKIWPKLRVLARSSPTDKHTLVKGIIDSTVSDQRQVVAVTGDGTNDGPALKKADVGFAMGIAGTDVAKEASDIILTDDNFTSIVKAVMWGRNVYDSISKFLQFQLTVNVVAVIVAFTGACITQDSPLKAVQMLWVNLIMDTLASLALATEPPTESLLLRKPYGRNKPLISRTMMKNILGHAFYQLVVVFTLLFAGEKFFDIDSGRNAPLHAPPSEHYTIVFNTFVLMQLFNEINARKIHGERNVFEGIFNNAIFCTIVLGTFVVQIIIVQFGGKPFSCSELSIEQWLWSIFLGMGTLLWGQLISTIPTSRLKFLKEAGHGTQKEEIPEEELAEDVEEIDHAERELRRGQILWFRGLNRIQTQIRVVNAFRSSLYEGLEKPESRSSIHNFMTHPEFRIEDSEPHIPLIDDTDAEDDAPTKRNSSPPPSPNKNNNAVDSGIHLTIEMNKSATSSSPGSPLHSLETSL
UniProt Q9H3H3: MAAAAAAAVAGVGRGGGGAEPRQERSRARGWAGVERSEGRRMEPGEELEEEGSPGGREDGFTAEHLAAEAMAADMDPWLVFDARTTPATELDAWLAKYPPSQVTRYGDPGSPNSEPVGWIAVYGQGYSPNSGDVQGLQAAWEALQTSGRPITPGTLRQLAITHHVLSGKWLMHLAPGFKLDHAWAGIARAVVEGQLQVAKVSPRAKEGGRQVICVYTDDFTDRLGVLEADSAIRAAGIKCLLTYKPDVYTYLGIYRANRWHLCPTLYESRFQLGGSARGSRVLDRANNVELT
UniProt Q9H0E9, whole entry: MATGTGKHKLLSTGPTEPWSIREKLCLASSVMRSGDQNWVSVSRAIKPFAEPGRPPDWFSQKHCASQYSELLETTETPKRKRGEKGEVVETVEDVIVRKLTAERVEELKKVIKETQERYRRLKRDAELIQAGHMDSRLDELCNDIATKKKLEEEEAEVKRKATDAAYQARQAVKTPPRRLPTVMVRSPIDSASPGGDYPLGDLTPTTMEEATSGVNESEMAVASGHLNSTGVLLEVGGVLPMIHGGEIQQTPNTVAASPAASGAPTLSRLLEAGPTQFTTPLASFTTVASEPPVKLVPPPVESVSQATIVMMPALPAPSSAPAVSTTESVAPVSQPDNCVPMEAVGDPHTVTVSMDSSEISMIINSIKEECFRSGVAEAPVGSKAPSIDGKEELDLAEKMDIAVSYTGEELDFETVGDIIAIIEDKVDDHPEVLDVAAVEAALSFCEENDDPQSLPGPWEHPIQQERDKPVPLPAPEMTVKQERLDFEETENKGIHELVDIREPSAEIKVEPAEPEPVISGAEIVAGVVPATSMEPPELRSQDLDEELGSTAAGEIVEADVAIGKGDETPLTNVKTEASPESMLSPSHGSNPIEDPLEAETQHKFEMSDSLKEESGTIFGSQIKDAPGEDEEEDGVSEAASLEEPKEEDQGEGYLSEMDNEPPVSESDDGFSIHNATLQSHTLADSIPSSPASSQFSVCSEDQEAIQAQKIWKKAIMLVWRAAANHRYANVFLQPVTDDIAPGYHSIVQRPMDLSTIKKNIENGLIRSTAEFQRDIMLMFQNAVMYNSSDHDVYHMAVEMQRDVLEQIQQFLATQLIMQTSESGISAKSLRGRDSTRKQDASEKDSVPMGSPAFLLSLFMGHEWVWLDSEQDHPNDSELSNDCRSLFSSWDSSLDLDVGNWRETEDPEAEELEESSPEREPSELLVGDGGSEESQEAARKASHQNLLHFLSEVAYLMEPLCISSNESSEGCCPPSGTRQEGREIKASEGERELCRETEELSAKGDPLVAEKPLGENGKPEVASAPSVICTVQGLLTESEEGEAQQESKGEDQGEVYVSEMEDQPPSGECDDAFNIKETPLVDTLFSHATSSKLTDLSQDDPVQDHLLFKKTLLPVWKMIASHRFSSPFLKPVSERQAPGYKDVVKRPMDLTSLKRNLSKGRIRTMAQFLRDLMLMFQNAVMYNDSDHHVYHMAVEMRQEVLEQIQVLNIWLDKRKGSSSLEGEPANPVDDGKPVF
UniProt Q9H3K6: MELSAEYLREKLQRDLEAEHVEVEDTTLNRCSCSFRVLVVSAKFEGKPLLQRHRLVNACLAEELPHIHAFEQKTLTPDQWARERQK
UniProt O94766: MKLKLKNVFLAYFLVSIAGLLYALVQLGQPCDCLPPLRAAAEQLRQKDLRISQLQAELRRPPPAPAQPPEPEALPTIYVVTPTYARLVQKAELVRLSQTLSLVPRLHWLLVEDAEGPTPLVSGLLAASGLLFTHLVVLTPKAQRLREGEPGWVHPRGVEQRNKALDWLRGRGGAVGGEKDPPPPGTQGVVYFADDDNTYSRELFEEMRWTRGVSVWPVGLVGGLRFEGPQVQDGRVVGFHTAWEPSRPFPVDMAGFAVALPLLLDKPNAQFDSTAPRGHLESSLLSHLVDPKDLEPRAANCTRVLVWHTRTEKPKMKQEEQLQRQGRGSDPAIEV
UniProt Q6IAA8, whole entry: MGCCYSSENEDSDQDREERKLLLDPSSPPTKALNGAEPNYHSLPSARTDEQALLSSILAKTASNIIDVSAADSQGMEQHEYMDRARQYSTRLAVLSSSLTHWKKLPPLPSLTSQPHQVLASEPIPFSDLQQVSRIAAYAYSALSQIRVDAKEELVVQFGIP
UniProt Q66PJ3: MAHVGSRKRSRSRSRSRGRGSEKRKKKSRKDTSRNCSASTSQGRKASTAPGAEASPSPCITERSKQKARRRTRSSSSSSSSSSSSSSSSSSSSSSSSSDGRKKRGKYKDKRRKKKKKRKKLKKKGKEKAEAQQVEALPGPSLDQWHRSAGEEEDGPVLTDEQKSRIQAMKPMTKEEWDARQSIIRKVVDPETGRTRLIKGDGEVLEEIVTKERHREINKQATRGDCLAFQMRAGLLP
UniProt O75915: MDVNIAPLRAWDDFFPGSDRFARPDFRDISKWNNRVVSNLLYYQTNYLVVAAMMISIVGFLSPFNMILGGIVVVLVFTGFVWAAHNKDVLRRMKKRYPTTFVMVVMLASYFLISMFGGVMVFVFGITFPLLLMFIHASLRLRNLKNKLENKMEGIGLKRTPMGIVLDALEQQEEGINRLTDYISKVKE
UniProt P15289: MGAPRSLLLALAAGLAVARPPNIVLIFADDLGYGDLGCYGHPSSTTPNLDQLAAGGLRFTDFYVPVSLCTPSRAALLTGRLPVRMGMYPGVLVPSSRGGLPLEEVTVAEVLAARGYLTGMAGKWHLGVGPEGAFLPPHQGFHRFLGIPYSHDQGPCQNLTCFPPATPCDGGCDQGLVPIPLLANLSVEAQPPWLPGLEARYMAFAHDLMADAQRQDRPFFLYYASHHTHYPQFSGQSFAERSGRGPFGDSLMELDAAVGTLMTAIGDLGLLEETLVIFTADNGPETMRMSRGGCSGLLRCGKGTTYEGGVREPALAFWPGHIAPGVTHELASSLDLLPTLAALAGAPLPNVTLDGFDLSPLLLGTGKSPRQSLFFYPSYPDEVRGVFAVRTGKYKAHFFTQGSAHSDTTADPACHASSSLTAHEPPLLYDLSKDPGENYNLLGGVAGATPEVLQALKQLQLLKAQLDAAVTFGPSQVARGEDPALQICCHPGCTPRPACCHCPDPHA
UniProt P46379: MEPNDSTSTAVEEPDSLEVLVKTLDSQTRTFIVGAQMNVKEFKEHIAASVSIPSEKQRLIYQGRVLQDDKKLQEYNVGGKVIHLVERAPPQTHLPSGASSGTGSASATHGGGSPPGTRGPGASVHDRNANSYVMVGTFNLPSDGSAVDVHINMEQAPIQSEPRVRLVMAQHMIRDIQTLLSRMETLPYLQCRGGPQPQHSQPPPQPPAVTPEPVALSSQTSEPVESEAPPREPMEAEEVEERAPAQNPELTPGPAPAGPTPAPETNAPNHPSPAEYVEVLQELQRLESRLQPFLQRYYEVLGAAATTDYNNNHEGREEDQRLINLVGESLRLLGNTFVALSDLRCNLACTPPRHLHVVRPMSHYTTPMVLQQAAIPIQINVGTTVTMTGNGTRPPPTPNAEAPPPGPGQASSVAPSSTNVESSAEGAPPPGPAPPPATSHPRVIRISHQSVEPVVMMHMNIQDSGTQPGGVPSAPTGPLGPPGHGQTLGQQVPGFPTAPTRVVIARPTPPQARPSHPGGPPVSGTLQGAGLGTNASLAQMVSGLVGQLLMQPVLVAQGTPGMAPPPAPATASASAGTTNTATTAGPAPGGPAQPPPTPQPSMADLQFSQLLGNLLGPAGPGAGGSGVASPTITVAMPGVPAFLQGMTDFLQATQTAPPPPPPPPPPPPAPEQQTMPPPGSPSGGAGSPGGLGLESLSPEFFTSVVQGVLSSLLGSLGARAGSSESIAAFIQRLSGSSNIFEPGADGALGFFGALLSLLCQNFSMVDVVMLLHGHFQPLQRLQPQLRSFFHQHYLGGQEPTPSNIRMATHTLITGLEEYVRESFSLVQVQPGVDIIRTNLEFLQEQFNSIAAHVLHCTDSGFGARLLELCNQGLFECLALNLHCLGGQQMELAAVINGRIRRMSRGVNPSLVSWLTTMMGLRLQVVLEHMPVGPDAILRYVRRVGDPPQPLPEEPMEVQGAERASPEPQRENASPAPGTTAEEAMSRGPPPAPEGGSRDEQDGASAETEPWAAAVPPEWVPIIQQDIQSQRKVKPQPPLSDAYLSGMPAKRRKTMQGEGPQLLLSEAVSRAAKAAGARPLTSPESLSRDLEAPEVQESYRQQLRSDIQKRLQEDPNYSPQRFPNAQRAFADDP
UniProt P56134: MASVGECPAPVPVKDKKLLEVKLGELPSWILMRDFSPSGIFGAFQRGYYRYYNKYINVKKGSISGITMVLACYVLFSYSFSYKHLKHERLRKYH
UniProt Q9NYM9: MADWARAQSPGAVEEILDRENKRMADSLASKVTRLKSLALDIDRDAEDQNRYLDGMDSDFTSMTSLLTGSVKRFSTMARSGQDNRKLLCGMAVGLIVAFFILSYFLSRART
UniProt Q15041, whole entry: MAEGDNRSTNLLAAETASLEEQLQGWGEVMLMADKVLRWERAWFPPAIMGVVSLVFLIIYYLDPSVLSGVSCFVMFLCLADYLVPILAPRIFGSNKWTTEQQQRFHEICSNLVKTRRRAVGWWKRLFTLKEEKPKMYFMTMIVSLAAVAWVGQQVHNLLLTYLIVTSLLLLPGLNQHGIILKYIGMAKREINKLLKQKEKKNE

Compound in the assay: COc1ccc(Cn2ccc3ccc(C(=O)NO)cc32)cc1
Briefly: dose-dependent thermal stabilisation call (2D-TPP, DLPTP, 10% FDR) (binary (1 = stabilised)); higher = stabilised by the compound. The settings on record: system: HL-60 intact cells; concentration range 0.04-10 µM.
Take ARL5A (UniProt Q9Y689): the “dose-dependent thermal stabilisation call” value is inactive: 0. For ATP2A2 (UniProt P16615) the value was inactive: 0; for ARNT (UniProt P27540), inactive: 0.

Regarding ATP2B1 (UniProt P20020), the “dose-dependent thermal stabilisation call” value is inactive: 0.

Turning to BLVRB (UniProt P30043), the “dose-dependent thermal stabilisation call” value is inactive: 0.

Take C11ORF68 (UniProt Q9H3H3): the “dose-dependent thermal stabilisation call” value was inactive: 0. Regarding BSG (UniProt P35613), the “dose-dependent thermal stabilisation call” value is inactive: 0. The same measure for BRD8 (UniProt Q9H0E9): inactive: 0. On to ARPC1A (UniProt Q92747), for which the “dose-dependent thermal stabilisation call” value is inactive: 0. The same measure for BOLA2 (UniProt Q9H3K6): inactive: 0; for B3GAT3 (UniProt O94766): inactive: 0.

Regarding ATP6V0A2 (UniProt Q9Y487), the “dose-dependent thermal stabilisation call” value is inactive: 0. The same measure for BXDC1 (UniProt Q9H7B2): inactive: 0; for C11ORF59 (UniProt Q6IAA8): inactive: 0; for ARL6IP4 (UniProt Q66PJ3): inactive: 0. Take BLMH (UniProt Q13867): the “dose-dependent thermal stabilisation call” value was inactive: 0. The same measure for AUP1 (UniProt Q9Y679): inactive: 0. With B3GNT2 (UniProt Q9NY97), the “dose-dependent thermal stabilisation call” value is inactive: 0. The same measure for ARL6IP5 (UniProt O75915): inactive: 0; for ASAP1 (UniProt Q9ULH1): inactive: 0; for C10ORF119 (UniProt Q9BTE3): inactive: 0. Take ATG7 (UniProt O95352): the “dose-dependent thermal stabilisation call” value was inactive: 0. As to ARL3 (UniProt P36405), the “dose-dependent thermal stabilisation call” value is inactive: 0. For ATP2A3 (UniProt Q93084) the value was inactive: 0; for AVL9 (UniProt Q8NBF6), inactive: 0; for ARSA (UniProt P15289), inactive: 0. As for BAT3 (UniProt P46379), the “dose-dependent thermal stabilisation call” value is inactive: 0. As for ATP13A3 (UniProt Q9H7F0), the “dose-dependent thermal stabilisation call” value was inactive: 0. For C11ORF2, the “dose-dependent thermal stabilisation call” value is inactive: 0. The same measure for BCCIP (UniProt Q9P287): inactive: 0; for ATP5J2 (UniProt P56134): inactive: 0; for BET1L (UniProt Q9NYM9): inactive: 0. Regarding B4GALT3 (UniProt O60512), the “dose-dependent thermal stabilisation call” value was inactive: 0. For ASPH (UniProt Q12797), the “dose-dependent thermal stabilisation call” value is inactive: 0.

As for ARL6IP1 (UniProt Q15041), the “dose-dependent thermal stabilisation call” value is inactive: 0.

Regarding ATG16L1 (UniProt Q676U5), the “dose-dependent thermal stabilisation call” value is inactive: 0. Take ATG5 (UniProt Q9H1Y0): the “dose-dependent thermal stabilisation call” value was inactive: 0.

Values taken from the supplement of paper PMC7666118.
